Measured values as given in PubChem BioAssay AID493014 (National Center for Advancing Translational Sciences (NCATS), 2011).
Screen size: about 340,000 compounds; about 170 (0.05%) were called active. Inconclusive means that the source gave no clear call. Such entries were picked first, then a sample of the others. The call rests on the fitted dose curve; in most records, active means well fitted inhibition curve with a large enough effect in the signal ratio, with a control signal flat (not every such curve was filed as active); inconclusive means small, poorly fitted or top-dose-only effect, or effect the other way, or a change in a side signal; inactive means flat fitted curve, though single readings scatter; the % refers to the signal ratio. Potencies beside an inconclusive call are fits to weak or partial responses and may not hold up.

assay: qHTS Assay to Find Inhibitors of Chronic Active B-Cell Receptor Signaling; settings: ABC-DLBCL IkBa-CBG/CBR reporter, luminescence ratio (green luciferase fused to IkBa over red control in TMD8 lymphoma cells), 4 h; activity change, negative = inhibition: at 46.1 µM (top of the series);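 on activity change, negative = inhibition: plate controls were basal doxycycline-induced cells for no effect and cells given 10 µM MG132 for full effect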
In short: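 Compounds up to 46 uM were incubated four hours with TMD8 cells whose green CBG68 luciferase is fused to IkappaBalpha; red CBR luminescence normalised the signal, and concentration-effect curves were fitted to fusion, red and ratio data.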
Potency means the concentration at half of the fitted maximal effect.

| Structure (SMILES) | activity change, negative = inhibition | Potency |
| --- | --- | --- |
| Cc1c(/C=N/NC(=O)c2cccnc2)c2ccccc2n1Cc1ccccc1 | inconclusive: -19.2% | – |
| Cc1cc(C(=O)NN=C2C3CC4CC(C3)CC2C4)c2ccccc2n1 | – | inconclusive: 11.2 µM [falling, partial curve] |
| CCOc1ccccc1NC(=O)CN(C)S(=O)(=O)c1ccc(OC)c(C)c1 | inconclusive: 1.31% | – |
| Cc1ccccc1Oc1nc2ccccc2n2cnnc12 | inconclusive: 14.1% | – |
| O=c1c2cc([N+](=O)[O-])ccc2nc(CN2CCN(c3ccccn3)CC2)n1-c1ccccc1F | inconclusive: 4.31% | – |
| O=C(NCc1ccco1)c1cccc(N2CCCC2=O)c1 | – | inconclusive: 23.1 µM [rising, partial curve, poor fit] |
| O=C(O)c1ccccc1NC(=S)NC(=O)c1sc2ccccc2c1Cl | – | inconclusive: 25.1 µM [falling, partial curve] |
| COc1ccc(-c2nn(-c3ccccc3)cc2/C=N/NC(=O)c2cccc(S(=O)(=O)Nc3ccccc3Cl)c2)cc1 | inconclusive: 7.7% | – |
| CCc1ccccc1NC(=O)Nc1ccc(F)cc1 | inconclusive: -22.2% | – |
| CC(=O)c1c(O)c2ccccc2n(C)c1=O | inactive | – |
| COc1ccc(Cn2ccnc2CO)cc1[N+](=O)[O-] | – | inconclusive: 0.891 µM [falling, full curve, poor fit] |
| COc1ccccc1NC(=O)CSc1nc2ccccc2c2nc(-c3ccccc3)nn12 | inactive | – |
| COc1ccccc1C(=O)NNC(=O)CCCN1C(=O)/C(=C/c2cccs2)SC1=S | – | inconclusive: 16.4 µM [falling, single point] |
| CCCc1cc(=O)[nH]c(SCC(=O)Nc2cc(C)on2)n1 | inactive | – |
| O=C(CCC(=O)c1ccc[nH]1)c1ccc(Cl)cc1 | – | inconclusive: 20 µM [falling, single point] |
| COc1ccc(/C=N/c2oc(C)c(C)c2C#N)c(OC)c1 | inconclusive: 13.8% | – |
| COc1ccc(CC(=O)Nc2cccc(-c3nnc(-c4cccc(C)c4)o3)c2)cc1OC | – | inconclusive: 16.4 µM [falling, single point] |
| CCC(C)(NC(=O)Cc1c[nH]c2ccccc12)C(=O)NC1CCCCC1 (stereo not given) | inconclusive: 1.44% | – |
| Cc1nn(C)c(C)c1NC(=O)CCSc1nc(-c2ccco2)cc(C(F)(F)F)n1 | inconclusive: 2.25% | – |
| Cc1ccc(/C=N/c2sc3c(c2C#N)CCC3)s1 | – | inconclusive: 18.4 µM [falling, partial curve, poor fit] |
| CCOc1cc(/C=C2/C(=O)ON=C2C)ccc1OCc1ccc(F)cc1 | inactive | – |
| Nc1nc2ccc(O)cc2s1 | – | inconclusive: 18.4 µM [falling, partial curve, poor fit] |
| O=C(Nc1cccc(F)c1)c1c(O)c2ccccc2[nH]c1=O | inconclusive: 2.5% | – |
| COc1ccc2c(C)cc(N3CCN(c4ccc(F)cc4)CC3)nc2c1 | – | inconclusive: 6.51 µM [falling, partial curve, poor fit] |
| COc1cccc(C(O)c2cnc(C(C)C)n2C)c1 (stereo not given) | inactive | – |

| Structure (SMILES) | activity change, negative = inhibition | Potency |
| --- | --- | --- |
| COc1cc(OC)cc(C(=O)N[C@H](C(=O)NCCc2c[nH]c3ccccc23)C(C)C)c1 | inconclusive: -18.8% | – |
| O=C(NNc1nc2ccccc2s1)c1ccc(F)cc1 | – | inconclusive: 20.6 µM [falling, partial curve] |
| NC(N)=N/N=C/c1ccc(Br)cc1 | inactive | – |
| O=C(Nc1ccccc1)N1CCN(c2ccc(F)cc2)CC1 | – | inconclusive: 23.1 µM [falling, partial curve] |
| O=c1oc(-c2cccc(C(F)(F)F)c2)nn1-c1ccc(C(F)(F)F)cn1 | inconclusive: 18.1% | – |
| O=C1CCCc2c1[nH]c1ccc(CN3CCCCC3)cc21 | – | inconclusive: 10 µM [falling, partial curve] |
| COc1cc2c(cc1OC)CN(CC(=O)Nc1cccc([N+](=O)[O-])c1)CC2 | inactive | – |
| Cc1ccc(/C=N/NC(=O)c2nnn(-c3nonc3N)c2CN(C)C)s1 | inactive | – |
| CC(C)OC(=O)c1ccc(N2CCN(c3ccccc3F)CC2)nc1 | inconclusive: 7.13% | – |
| Cc1cc(C)c2c(c1)C(=O)/C(=C/c1ccc(C(=O)O)cc1)CC2 | – | inconclusive: 22.4 µM [falling, single point] |
| O=C1c2cccc(OCc3ccc(F)cc3)c2CCN1Cc1ccccc1 | inconclusive: -8.91% | – |
| COc1cc(/C=C/C(=O)OCC(=O)N2CCCc3ccccc32)ccc1O | inconclusive: -17.4% | – |
| COC(=O)c1c(NC(=O)Cc2ccccc2)sc2c1CCN(C(C)C)C2 | – | inconclusive: 15.8 µM [falling, single point] |
| COc1ccccc1CNC(=O)c1ccc(C)s1 | – | inconclusive: 12.6 µM [falling, partial curve, poor fit] |
| COc1ccc(Nc2nc(N3CCCC3)nc(N3CCCC3)n2)c(OC)c1 | inactive | – |
| FC(F)(F)c1cc(Nc2ccccc2)nc(-c2ccccn2)n1 | inactive | – |
| O=C(Nc1ccc2c(c1)OCCO2)c1ccc(NC(=O)C2CCCO2)cc1 (stereo not given) | inactive | – |
| CCc1ccc2c(c1)C1(NN=C(c3ccc(C)cc3)S1)C(=O)N2 (stereo not given) | – | inconclusive: 18.4 µM [falling, single point] |
| CCOc1ccc(NC(=O)c2ccccc2NS(=O)(=O)c2ccc(F)cc2)c([N+](=O)[O-])c1 | inconclusive: -0.793% | – |
| O=C(Nc1ccccc1)Nc1ccc2ccccc2c1 | – | inconclusive: 11.2 µM [falling, partial curve] |
| O=C(N/N=C/c1cc2c(cc1Br)OCO2)c1cccnc1 | – | inconclusive: 11.2 µM [falling, partial curve] |
| N#C/C(=C(/O)COc1ccc(Cl)cc1)c1nc2ccccc2s1 | – | inconclusive: 11.2 µM [falling, partial curve] |
| CN1/C(=C\C(=O)COC(=O)c2ccc(O)cc2)C(C)(C)c2ccccc21 | inconclusive: -19% | – |
| CC(=O)CCC(=O)N1CCC(n2nccc2NC(=O)c2ccccc2C)CC1 | inactive | – |
| C[C@@H](NC(=O)c1coc(=O)c(Br)c1)c1ccccc1 | – | inconclusive: 29.1 µM [falling, single point] |

Nothing new here: an excerpt of the list.

| Structure (SMILES) | activity change, negative = inhibition | Potency |
| --- | --- | --- |
| COc1cc2c(cc1OC)CN(CC(=O)Nc1cccc([N+](=O)[O-])c1)CC2 | inactive | – |
| Cc1ccc(/C=N/NC(=O)c2nnn(-c3nonc3N)c2CN(C)C)s1 | inactive | – |
| CC(C)OC(=O)c1ccc(N2CCN(c3ccccc3F)CC2)nc1 | inconclusive: 7.13% | – |
| Cc1cc(C)c2c(c1)C(=O)/C(=C/c1ccc(C(=O)O)cc1)CC2 | – | inconclusive: 22.4 µM [falling, single point] |
| O=C1c2cccc(OCc3ccc(F)cc3)c2CCN1Cc1ccccc1 | inconclusive: -8.91% | – |
| COc1cc(/C=C/C(=O)OCC(=O)N2CCCc3ccccc32)ccc1O | inconclusive: -17.4% | – |
| COC(=O)c1c(NC(=O)Cc2ccccc2)sc2c1CCN(C(C)C)C2 | – | inconclusive: 15.8 µM [falling, single point] |
| COc1ccccc1CNC(=O)c1ccc(C)s1 | – | inconclusive: 12.6 µM [falling, partial curve, poor fit] |
| COc1ccc(Nc2nc(N3CCCC3)nc(N3CCCC3)n2)c(OC)c1 | inactive | – |
| FC(F)(F)c1cc(Nc2ccccc2)nc(-c2ccccn2)n1 | inactive | – |
| O=C(Nc1ccc2c(c1)OCCO2)c1ccc(NC(=O)C2CCCO2)cc1 (stereo not given) | inactive | – |
